Earlier results in patent publication US7868173B2, “Prodrugs of benzoquinolizine-2-carboxylic acid” (Wockhardt Limited, priority 2006, dated 2011).
Some results were stated once for a whole list of compounds, not compound by compound. At least one compound was matched to its structure with a doubt left.

Conditions: amino acid prodrugs of U.S. Pat. No. 6,750,224; cited from earlier work

For `CC(C)[C@H](N)C(=O)OC1CCN(c2c(F)cc3c(=O)c(C(=O)O)cn4c3c2CC[C@@H]4C)CC1` [(2′S,5S)-9-fluoro-6,7-dihydro-8-(4-L-valinyloxy-piperidin-1-yl)-5-methyl-1-oxo-1H,5H-benzo[i,j]quinolizine-2-carboxylic acid], the water solubility is given as less than 10000 µg/mL.
